No constants are given. Whether binding was seen depends on the method and setting. For part of these data: Binding seen in cells or lysates may run through a third protein. For part of these data: Binding can be weak; no strength is given. For part of these data: Where a sequence is shown, tags or fusion partners need not be part of it.
Experiments:
[1] = molecular target: LIF-receptor; assay: Biacore, protein injected over the immobilised peptide
[2] = molecular target: Endogenous 14-3-3; assay: co-immunoprecipitation from 293T cell lysates, immunoblot

B1: Noxa (18-43) BH3 peptide, human (peptide)
peptide: PAELEVECATQLRRFGDKLNFRQKLL
- binding [1]: no binding

B2: Bad (103-128) BH3 peptide, human (peptide)
peptide: NLWAAQRYGRELRRMSDEFVDSFKKG
- binding [1]: no binding

B3: HA-tagged full-length mouse Bad (protein)
chain: YPYDVPDYAMGTPKQPSLAPAHALGLRKSDPGIRSLGSDAGGRRWRPAAQSMFQIPEFEPSEQEDASATDRGLGPSLTEDQPGPYLAPGLLGSNIHQQGRAATNSHHGGAGAMETRSRHSSYPAGTEEDEGMEEELSPFRGRSRSAPPNLWAAQRYGRELRRMSDEFEGSFKGLPRPKSAGTATQMRQSAGWTRIIQSWWDRNLGKGGSTPSQ
- binding [2]: binds

From patent US20080027145A1, “Therapeutic Molecules and Methods for Generating and/or Selecting Same” (priority 2004, published 2008)
